Most values lie at the floor of the assay. Slopes are relative: functional sequences can read slightly below zero.
The substances below were run on Saccharomyces cerevisiae PS128 hsf1 delta, HSF1(1-493) fusion (assay: growth estimate (transactivation domain function in HSF1 fusion, heat-shock survival) (a.u. (slope of normalised read count over time)); higher = stronger growth at 37°C, i.e. more transactivation activity). Settings: library: random library.
Procedure: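 Random 60-nt DNA library encoding peptides of up to 20 aa, fused to the C-terminus of yeast HSF1 residues 1-493 (C-terminal TAD deleted) and expressed from the native HSF1 promoter on a CEN plasmid in hsf1-deleted S. cerevisiae PS128. Cells were selected at 37°C on -trp 5-FOA plates for 0, 2, 4, 6 and 8 days and amplicons were sequenced. Growth estimate is the slope of a robust linear fit of total-sum-normalised read counts (normalised to the first time point) over time, using at least 2 replicates. Sequences are classed functional (TAD activity) above a threshold of -0.13, set from stop-codon control sequences.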

Row | Substance | growth estimate
1 | ESYGSRTLSCRDFGLSMTPP | < -0.25
2 | PAMYSAWS | < -0.25
3 | GSLVTMARC | < -0.25
4 | LSIRENASSVGYACERVSRG | < -0.25
5 | LANTVEA | < -0.25
6 | TRIRRYARMEAITPTLGLST | < -0.25
7 | PRMSFRPYLGA | < -0.25
8 | TGAGQHWVIKYHQVNH | < -0.25
9 | NRYLEM | < -0.25
10 | SCMASYYSP | < -0.25
11 | HGCSITGGAMYLKVPACGSR | < -0.25
12 | PREPLVGIGGFAPPSL | < -0.25
13 | RRGVEEDALDPQQPCGLITD | < -0.25
14 | SRIIKRIKHGCFKLNLFCAL | < -0.25
15 | TFRRSVGPKTSMPNTFQLAV | < -0.25
16 | RESAVGHMAV | < -0.25
17 | AERFYVREYDETLVTTGGIV | < -0.25
18 | LSKKCSLLRQSI | < -0.25
19 | HAGISGPLHPVIVYWMPV | < -0.25
20 | AKAVRVDGCNALEFLVNPPL | < -0.25
21 | STSRGTC | < -0.25
22 | SQGPV | < -0.25
23 | MRRRATDV | < -0.25
24 | MFS | < -0.25
25 | RPSGFVLR | < -0.25
26 | DPDGAEVCLKLSDESLH | -0.219

Row | Substance | growth estimate
27 | VRSGFGSARQMLCQHRQLCG | < -0.25
28 | TRGPLSGGLSTMLRVWELSG | < -0.25
29 | FLSTRFRTL | < -0.25
30 | SYFLPRYDLRRAIPLCKVL | < -0.25
31 | VQARMPDLSRHKISSGLALG | < -0.25
32 | PDAPCSRGCQDVVGSLFHLA | < -0.25
33 | REYPFEQGVGCPPVVCGGPA | < -0.25
34 | SDDLSVVYF | < -0.25
35 | QGMLR | < -0.25
36 | WKRSPERRMVGVRRLKSQVT | < -0.25
37 | PGLRGWFSRGNYVCRVQFFP | < -0.25
38 | HKSILLYCLLYMRFW | < -0.25
39 | KGLLVVIPGVQRYEFAAVLP | < -0.25
40 | VHLSVLTPKVDLPSSWHESR | < -0.25
41 | IVEGYCGYPLHIITIVFSLT | < -0.25
42 | VHFPVSQLPV | < -0.25
43 | PPCIVTIITAAGVRSGQTSV | < -0.25
44 | SGAGYRGYFNAAKCT | < -0.25
45 | AVLN | < -0.25
46 | TLDMACPENQQHLCF | < -0.25
47 | ACPYISIKLK | < -0.25
48 | SRLSNFLVPRPKAYRAVRYA | < -0.25
49 | AHTVQKEGALRAVIAQSDRT | < -0.25
50 | VGFRVLLFQKNGIGTSPVQS | < -0.25
51 | SHKWTGYEIILHGIRRCVGR | < -0.25
52 | YPGPEKVWRLIL | < -0.25

Some of the entries so far, with each value named:
HAGISGPLHPVIVYWMPV
  growth estimate = < -0.25
RPSGFVLR
  growth estimate = < -0.25
AHTVQKEGALRAVIAQSDRT
  growth estimate = < -0.25

2 entries from above, in markdown.

| Row | Substance | growth estimate |
| --- | --- | --- |
| 41 | IVEGYCGYPLHIITIVFSLT | < -0.25 |
| 42 | VHFPVSQLPV | < -0.25 |

Next entries follow.

Row | Substance | growth estimate
53 | YAYGTVGNAPRRGSRFSGIG | < -0.25
54 | VDDSSGPAQRRPVSRALVLS | < -0.25
55 | NRVYLLMLIFSIRLGRIIAF | < -0.25
56 | FTVSISAHLVAPGKAGRKHE | < -0.25
57 | HPEVSTRQQSERYGMTRREP | < -0.25
58 | LWRKGPRRTD | < -0.25
59 | DKCHLPCPGRNQVPLATLCS | < -0.25
60 | GSFPIRQSSVLDRKALSVHG | < -0.25
61 | SYTRGGQYVTR | < -0.25
62 | RLGIF | < -0.25
63 | RPTEHTWVRTLSCT | < -0.25
64 | FDWM | 10.5
65 | IPPCSVSFHGMGPLL | < -0.25
66 | IADRKFL | < -0.25
67 | LLIGTPQSS | < -0.25
68 | GLALRYGFA | < -0.25
69 | QCKGHRTPTNVGSKFARFCK | < -0.25
70 | WQHAGGSLPVH | < -0.25
71 | TYI | < -0.25
72 | SIA | < -0.25
73 | TRTKNDAGP | -0.246
74 | LYACGAIALVREVDLARLA | < -0.25
75 | YNIRGAQQAVHRETVLMNCS | < -0.25
76 | SAGPAGASSLGPLAVQGRRA | < -0.25
77 | IITA | < -0.25
78 | GHSQMKFGCTTGGAPGLIGR | < -0.25

Row | Substance | growth estimate
79 | SRCDLFNTLAVRIGFLLVCG | < -0.25
80 | DDFR | < -0.25
81 | SGRMQRGRSVCWAEGSMAAL | < -0.25
82 | GHRGWALGHCPGHG | < -0.25
83 | IILLGKVRLCRFVCDTYI | < -0.25
84 | ESAELHH | < -0.25
85 | TTGFYVMCTIQPV | < -0.25
86 | GHGYDRTAGESGD | < -0.25
87 | VNAVLSSVTL | < -0.25
88 | HYADSGFLERWTPCVTDSMY | < -0.25
89 | VFLTISFTN | < -0.25
90 | VANPWVGAGVHVSNYSGDKS | < -0.25
91 | HDLPGTPIY | < -0.25
92 | GKM | < -0.25
93 | FHLVVGRGRPWAVRDRPFP | -0.227
94 | PSSCIVPGRNFIKAEFRNAV | < -0.25
95 | APLSLSYDIEISFCGSHCPS | < -0.25
96 | WIIQLGGSLDANR | < -0.25
97 | TGVVRLKRNEACCSRAV | < -0.25
98 | SPVAKICLN | < -0.25
99 | MAVNGPSISKSRFFDISRCL | < -0.25
100 | RIAANSGPWWGPKVSFVSVL | < -0.25
101 | SKVTSLSARQPYGPAVL | < -0.25
102 | YFLVIPWA | < -0.25
103 | GTGGRVDTRSPHTWACRYLV | < -0.25
104 | LMGVVRRPRVQLYR | 0.183

Row | Substance | growth estimate
105 | GNIQRYWLNLKVIMSWLVR | < -0.25
106 | QRSFAGLPLSRRAEGSRLDA | < -0.25
107 | IDVPISSMESVGLAR | < -0.25
108 | WITL | -0.0269
109 | VSKGYNGLPSLKAM | < -0.25
110 | NFYG | < -0.25
111 | DSAWAGRRSTD | < -0.25
112 | VTKEKPMIDSVNLNS | < -0.25
113 | RPIVVRMRP | < -0.25
114 | YLIIHIPAHRLTAAVTRGLR | < -0.25
115 | LLPIVRVHIGDIGDTAGGRV | < -0.25
116 | PRRPSALKDYRCKSLHFSVD | < -0.25
117 | CDPRFGNVCERTALGVRCHV | < -0.25
118 | CTKSSSIMCPRSCLCGNGWI | < -0.25
119 | GAASTSKRR | < -0.25
120 | RVNIRAYHRFLSVGSYVHRA | < -0.25
121 | LDRQNRPDDFIAQQPDKHRK | < -0.25
122 | SGETFARTSRLYCHVECRPV | < -0.25
123 | LVA | < -0.25
124 | GTVPVIAFRRSCGKDY | < -0.25
125 | RKYQYFCRGFGEVHHLCNAS | < -0.25
126 | RWSVSRYGFGFLTY | < -0.25
127 | TFFASNEDIRLHGLRSAGC | -0.231
128 | LRCCG | < -0.25
129 | NYG | < -0.25
130 | CLSSRECENCSLSSPAYSGQ | < -0.25

Row | Substance | growth estimate
131 | LDPPMSSTRFETEG | < -0.25
132 | NMGLMERPALADNGTRG | < -0.25
133 | GPRPGPRWILGTIVIV | < -0.25
134 | VEGAQVGIIGLGPCCGQYQQ | < -0.25
135 | GESRPAIPLGVNQWFEPNTI | < -0.25
136 | LYARLGEAVLPQRL | < -0.25
137 | NVSLRPKSAEGTASHARLRS | < -0.25
138 | PVLRELSLRITRPCPLSLRR | < -0.25
139 | CWIY | < -0.25
140 | KGCEVAVFVTGGTTF | < -0.25
141 | RGASRGEQCGTLAGIPRYRV | < -0.25
142 | GVNFC | < -0.25
143 | YMESILSGIFIGVGNIQLRF | < -0.25
144 | MMVV | < -0.25
145 | FCIAGDMYSYVWEVSWDRHV | < -0.25
146 | RSEKPLEANRYWCRTIK | < -0.25
147 | GTGRHGRGLEYGGSDIYYLV | < -0.25
148 | RYKL | < -0.25
149 | VLSRLRRALKVIWVSVRSLG | < -0.25
150 | GLSFVVRDDSRSTGAVGS | < -0.25
151 | DCRD | -0.168
152 | HPWQ | < -0.25

Source: the supplement of paper PMC5949888
